Measured values: patent publication US20160131656A1
Results are given in words; binding and its absence hold for the method and conditions named. Some results given as binding are weak or reduced against the parent protein; the word gives no strength. For part of these data: Where a sequence is shown, tags or fusion partners need not be part of it.

What was measured:
[1] = target: FAT Tumor Suppressor Homolog 1 (FAT1) protein, human, endogenous in cancer cells and tissues (human) (UniProt Q14517); experiment: FACS of colon cancer cells (cell line not printed on the sheet) loaded with mAb91.4 at 10 micrograms/ml for 30 min at 4 C, then shifted to 37 C; PE-conjugated secondary antibody
[2] = target: FAT Tumor Suppressor Homolog 1 (FAT1) protein, human, endogenous in cancer cells and tissues (human) (UniProt Q14517); experiment: FACS on HCT15 and Colo205 cells
[3] = target: FAT Tumor Suppressor Homolog 1 (FAT1) protein, human, endogenous in cancer cells and tissues (human) (UniProt Q14517); experiment: FACS on colon cancer cells, 10 micrograms/ml
[4] = target: T1, FAT1 Fragment A (amino acid 723 to amino acid 1352), His6-V5 tagged, in transfected HeLa/HEK-293T cells (human) (UniProt Q14517); experiment: transfected HeLa/HEK-293T cells
T1 sequence: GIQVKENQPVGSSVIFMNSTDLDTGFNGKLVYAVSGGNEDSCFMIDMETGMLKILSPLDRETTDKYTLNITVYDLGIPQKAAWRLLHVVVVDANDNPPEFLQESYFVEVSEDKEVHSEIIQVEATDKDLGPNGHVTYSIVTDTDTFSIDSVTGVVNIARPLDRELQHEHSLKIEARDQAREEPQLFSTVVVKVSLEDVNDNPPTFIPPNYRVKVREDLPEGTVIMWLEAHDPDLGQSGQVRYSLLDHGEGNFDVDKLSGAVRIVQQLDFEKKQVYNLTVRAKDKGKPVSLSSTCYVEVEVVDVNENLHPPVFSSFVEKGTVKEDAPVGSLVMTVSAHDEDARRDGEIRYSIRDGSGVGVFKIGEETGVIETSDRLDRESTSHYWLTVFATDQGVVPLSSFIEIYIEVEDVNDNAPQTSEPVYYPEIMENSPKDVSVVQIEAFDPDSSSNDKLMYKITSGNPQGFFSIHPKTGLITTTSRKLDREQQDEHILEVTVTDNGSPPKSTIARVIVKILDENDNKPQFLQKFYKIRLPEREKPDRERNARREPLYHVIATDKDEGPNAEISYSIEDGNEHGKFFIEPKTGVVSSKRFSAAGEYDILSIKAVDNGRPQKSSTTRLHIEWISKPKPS

[5] = target: T2, shorter form of FAT1 Fragment A lacking the region overlapping with Fragment B (human) (UniProt Q14517); experiment: Western blot of transfected HeLa and HEK-293T cells
T2 sequence (looked up): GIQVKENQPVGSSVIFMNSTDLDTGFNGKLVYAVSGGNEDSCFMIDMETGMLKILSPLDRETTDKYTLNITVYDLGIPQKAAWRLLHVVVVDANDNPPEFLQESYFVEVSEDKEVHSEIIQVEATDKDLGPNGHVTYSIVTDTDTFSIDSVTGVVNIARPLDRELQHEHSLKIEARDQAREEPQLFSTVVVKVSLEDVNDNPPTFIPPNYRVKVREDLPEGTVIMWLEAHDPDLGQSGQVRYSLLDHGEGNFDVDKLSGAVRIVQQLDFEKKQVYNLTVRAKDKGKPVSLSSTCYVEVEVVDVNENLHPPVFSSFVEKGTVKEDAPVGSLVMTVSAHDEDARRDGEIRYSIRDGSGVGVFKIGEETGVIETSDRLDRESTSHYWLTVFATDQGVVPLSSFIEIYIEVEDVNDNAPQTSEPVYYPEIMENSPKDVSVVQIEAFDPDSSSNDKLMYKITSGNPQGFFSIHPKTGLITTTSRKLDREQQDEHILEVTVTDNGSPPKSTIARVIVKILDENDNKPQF

[6] = target: T2, shorter form of FAT1 Fragment A lacking the region overlapping with Fragment B (human); experiment: Western blot with mAb91.3 of total extracts of transfected HEK-293T cells
[7] = target: T3, FAT1 recombinant cadherin Domain 12 (amino acid 1246 to 1352) (human) (UniProt Q14517); experiment: ELISA on recombinant domain
T3 sequence: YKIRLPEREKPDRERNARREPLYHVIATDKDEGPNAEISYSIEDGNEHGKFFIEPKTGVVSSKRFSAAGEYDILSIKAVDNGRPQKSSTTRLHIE

[8] = target: T3, FAT1 recombinant cadherin Domain 12 (amino acid 1246 to 1352) (human); experiment: Western blot with mAb91.3, recombinant Domain 12 loaded beside the cell extracts
[9] = target: FAT Tumor Suppressor Homolog 1 (FAT1) protein, human, endogenous in cancer cells and tissues (human) (UniProt Q14517); experiment: FACS on Colo205 cells with HEK-293T culture supernatant

Measured: binding

B1: anti-FAT1 monoclonal antibody mAb91.4 (antibody, V domains shown)
VH: QSGSGLVRPGTSVKLSCKASGFTFTSNWMHWVKQRPGQGLDWIGNIYPGSGKTNYGEKFKSKATLTVDTSSSTAYIQLSSLTSEDSAVYYCTRSGGQRFDYWGQGTTLTVSS
VL: QSPAIMSAFTGEKVTMTCSASSSVACMHWYQQKSSTSPKLLIYDTSELASGVPGRFSGSGSGNSYSLTISSMEAEDVATYYCFQGSGYPLTFGGGTKLEIKR
binds: [1] | [2] | [3] | [4]

B2: anti-FAT1 monoclonal antibody mAb91.3 (antibody, V domains shown)
VH: VQLQQSGSELVRPGASVKLSCKASGYTFTRSWMHWIKQRPGQGLEWIGNIYPGSGGTNYDEKFKSKATLTVDTSSSTAYMQLSSLTSEDSAIYYCTRSGGQRFDYWGQGTTLTVSS
VL: IVMTQSPAIMSAFSGEKVTMTCSASSSVSSMHWYQQKSSTSPKFWIYDTSKLASGVPGRFSGSGSGNSYSLTISSMEAEDVATYYCFQGSGYPFTFGGGTKLEIKR
binds: [5] | [6] | [7] | [8]

B3: recombinant mouse IgG2a antibody bearing the variable regions of mAb91.3 (antibody, V domains shown)
VH: VQLQQSGSELVRPGASVKLSCKASGYTFTRSWMHWIKQRPGQGLEWIGNIYPGSGGTNYDEKFKSKATLTVDTSSSTAYMQLSSLTSEDSAIYYCTRSGGQRFDYWGQGTTLTVSS
VL: IVMTQSPAIMSAFSGEKVTMTCSASSSVSSMHWYQQKSSTSPKFWIYDTSKLASGVPGRFSGSGSGNSYSLTISSMEAEDVATYYCFQGSGYPFTFGGGTKLEIKR
binds: [9]
